The list shows a part of the results.
What was measured:
Test in all cases: glycan array binding signal (z-score within array); higher = stronger binding
Conditions in all cases: glycan notation: IUPAC condensed, linker removed
[1] = biological target: Neu5Ac(a2-3)GalNAc
Summary of the method: (§1)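 Glycan array data came from 3228 arrays in the Consortium for Functional Glycomics database, and only arrays with an available protein sequence were kept. Glycan names were put into IUPAC-condensed notation, and columns mapping to the same glycan were averaged. The binding signal is a within-array Z-score, averaged across arrays of one protein sequence run at different concentrations or buffers and across linkers. A negative Z-score can be read as non-binding.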

[2] = biological target: Neu5Ac(a2-3)GalNAc(b1-4)GlcNAc
Summary of the method: as §1

[3] = biological target: Neu5Ac(a2-3)[GalNAc(b1-4)]Gal(b1-4)Glc
Summary of the method: as §1

[4] = biological target: Neu5Ac(a2-3)[GalNAc(b1-4)]Gal(b1-4)GlcNAc
Summary of the method: as §1

[5] = biological target: Neu5Ac(a2-3)[GalNAc(b1-4)]Gal(b1-4)GlcNAc(b1-3)GalNAc
Summary of the method: as §1

[6] = biological target: Neu5Ac(a2-3)[Neu5Ac(a2-6)]GalNAc
Summary of the method: as §1

[7] = biological target: Neu5Ac(a2-6)Gal
Summary of the method: as §1

[8] = biological target: Neu5Ac(a2-6)Gal(b1-3)GlcNAc(b1-3)[Gal(b1-4)GlcNAc(b1-6)]Gal(b1-4)Glc
Summary of the method: as §1

[9] = biological target: Neu5Ac(a2-6)Gal(b1-4)Glc
Summary of the method: as §1

[10] = biological target: Neu5Ac(a2-6)Gal(b1-4)GlcNAc
Summary of the method: as §1

[11] = biological target: Neu5Ac(a2-6)Gal(b1-4)GlcNAc(b1-2)Man
Summary of the method: as §1

[12] = biological target: Neu5Ac(a2-6)Gal(b1-4)GlcNAc(b1-2)Man(a1-3)Man(b1-4)GlcNAc(b1-4)GlcNAc
Summary of the method: as §1

[13] = biological target: Neu5Ac(a2-6)Gal(b1-4)GlcNAc(b1-2)Man(a1-3)[Gal(b1-4)GlcNAc(b1-2)Man(a1-6)]Man(b1-4)GlcNAc(b1-4)GlcNAc
Summary of the method: as §1

[14] = biological target: Neu5Ac(a2-6)Gal(b1-4)GlcNAc(b1-2)Man(a1-3)[GlcNAc(b1-2)Man(a1-6)]Man(b1-4)GlcNAc(b1-4)GlcNAc
Summary of the method: as §1

[15] = biological target: Neu5Ac(a2-6)Gal(b1-4)GlcNAc(b1-2)Man(a1-3)[GlcNAc(b1-4)][Neu5Ac(a2-6)Gal(b1-4)GlcNAc(b1-2)Man(a1-6)]Man(b1-4)GlcNAc(b1-4)GlcNAc
Summary of the method: as §1

[16] = biological target: Neu5Ac(a2-6)Gal(b1-4)GlcNAc(b1-2)Man(a1-3)[Man(a1-6)]Man(b1-4)GlcNAc(b1-4)GlcNAc
Summary of the method: as §1

[17] = biological target: Neu5Ac(a2-6)Gal(b1-4)GlcNAc(b1-2)Man(a1-3)[Neu5Ac(a2-3)Gal(b1-4)GlcNAc(b1-2)Man(a1-6)]Man(b1-4)GlcNAc(b1-4)GlcNAc
Summary of the method: as §1

[18] = biological target: Neu5Ac(a2-6)Gal(b1-4)GlcNAc(b1-2)Man(a1-3)[Neu5Ac(a2-6)Gal(b1-4)GlcNAc(b1-2)Man(a1-6)]Man(b1-4)GlcNAc(b1-4)GlcNAc
Summary of the method: as §1

[19] = biological target: Neu5Ac(a2-6)Gal(b1-4)GlcNAc(b1-2)Man(a1-3)[Neu5Ac(a2-6)Gal(b1-4)GlcNAc(b1-2)Man(a1-6)]Man(b1-4)GlcNAc(b1-4)[Fuc(a1-6)]GlcNAc
Summary of the method: as §1

[20] = biological target: Neu5Ac(a2-6)Gal(b1-4)GlcNAc(b1-2)Man(a1-6)Man(b1-4)GlcNAc(b1-4)GlcNAc
Summary of the method: as §1

[21] = biological target: Neu5Ac(a2-6)Gal(b1-4)GlcNAc(b1-2)Man(a1-6)[Gal(b1-4)GlcNAc(b1-2)Man(a1-3)]Man(b1-4)GlcNAc(b1-4)GlcNAc
Summary of the method: as §1

[22] = biological target: Neu5Ac(a2-6)Gal(b1-4)GlcNAc(b1-2)Man(a1-6)[GlcNAc(b1-2)Man(a1-3)]Man(b1-4)GlcNAc(b1-4)GlcNAc
Summary of the method: as §1

[23] = biological target: Neu5Ac(a2-6)Gal(b1-4)GlcNAc(b1-2)Man(a1-6)[Man(a1-3)]Man(b1-4)GlcNAc(b1-4)GlcNAc
Summary of the method: as §1

[24] = biological target: Neu5Ac(a2-6)Gal(b1-4)GlcNAc(b1-2)[Neu5Ac(a2-6)Gal(b1-4)GlcNAc(b1-4)]Man(a1-3)[GlcNAc(b1-4)][Neu5Ac(a2-6)Gal(b1-4)GlcNAc(b1-2)[Neu5Ac(a2-6)Gal(b1-4)GlcNAc(b1-6)]Man(a1-6)]Man(b1-4)GlcNAc(b1-4)GlcNAc
Summary of the method: as §1

[25] = biological target: Neu5Ac(a2-6)Gal(b1-4)GlcNAc(b1-2)[Neu5Ac(a2-6)Gal(b1-4)GlcNAc(b1-4)]Man(a1-3)[GlcNAc(b1-4)][Neu5Ac(a2-6)Gal(b1-4)GlcNAc(b1-4)Man(a1-6)]Man(b1-4)GlcNAc(b1-4)GlcNAc
Summary of the method: as §1

[26] = biological target: Neu5Ac(a2-6)Gal(b1-4)GlcNAc(b1-2)[Neu5Ac(a2-6)Gal(b1-4)GlcNAc(b1-6)]Man(a1-6)[Neu5Ac(a2-6)Gal(b1-4)GlcNAc(b1-2)Man(a1-3)][GlcNAc(b1-4)]Man(b1-4)GlcNAc(b1-4)GlcNAc
Summary of the method: as §1

[27] = biological target: Neu5Ac(a2-6)Gal(b1-4)GlcNAc(b1-3)Gal(b1-3)GlcNAc
Summary of the method: as §1

[28] = biological target: Neu5Ac(a2-6)Gal(b1-4)GlcNAc(b1-3)Gal(b1-4)GlcNAc
Summary of the method: as §1

[29] = biological target: Neu5Ac(a2-6)Gal(b1-4)GlcNAc(b1-3)Gal(b1-4)GlcNAc(b1-2)Man(a1-3)[Neu5Ac(a2-6)Gal(b1-4)GlcNAc(b1-3)Gal(b1-4)GlcNAc(b1-2)Man(a1-6)]GalNAc
Summary of the method: as §1

[30] = biological target: Neu5Ac(a2-6)Gal(b1-4)GlcNAc(b1-3)Gal(b1-4)GlcNAc(b1-3)Gal(b1-4)GlcNAc
Summary of the method: as §1

[31] = biological target: Neu5Ac(a2-6)Gal(b1-4)GlcNAc(b1-3)Gal(b1-4)GlcNAc(b1-3)Gal(b1-4)GlcNAc(b1-2)Man(a1-3)[Neu5Ac(a2-6)Gal(b1-4)GlcNAc(b1-3)Gal(b1-4)GlcNAc(b1-3)Gal(b1-4)GlcNAc(b1-2)Man(a1-6)]GalNAc
Summary of the method: as §1

[32] = biological target: Neu5Ac(a2-6)Gal(b1-4)GlcNAc(b1-3)Gal(b1-4)GlcNAc(b1-3)GalNAc
Summary of the method: as §1

[33] = biological target: Neu5Ac(a2-6)Gal(b1-4)GlcNAc(b1-3)Gal(b1-4)GlcNAc(b1-3)[Neu5Ac(a2-6)Gal(b1-4)GlcNAc(b1-3)Gal(b1-4)GlcNAc(b1-6)]GalNAc
Summary of the method: as §1

[34] = biological target: Neu5Ac(a2-6)Gal(b1-4)GlcNAc(b1-3)Gal(b1-4)GlcNAc(b1-6)[Gal(b1-3)]GalNAc
Summary of the method: as §1

[35] = biological target: Neu5Ac(a2-6)Gal(b1-4)GlcNAc(b1-3)Gal(b1-4)[Fuc(a1-3)]GlcNAc(b1-3)Gal(b1-4)[Fuc(a1-3)]GlcNAc
Summary of the method: as §1

[36] = biological target: Neu5Ac(a2-6)Gal(b1-4)GlcNAc(b1-3)GalNAc
Summary of the method: as §1

[37] = biological target: Neu5Ac(a2-6)Gal(b1-4)GlcNAc(b1-3)[Neu5Ac(a2-6)Gal(b1-4)GlcNAc(b1-6)]GalNAc
Summary of the method: as §1

B1: GS7807G-bfa-506-18-506 (Bacteroides fragilis) (protein)
chain: ASCDKFDEINTDPDATTKVTSSLLATGLLLDITSSSASKSFIYDELLAKQMAWGESMEDYQYNVFGRSGFGGYTTLINAQKMVESVSDDNVNAYDGLAHFIKAYKIFYMSMEMGDLPYEEALQGELGLVRPKYNTQKEVMNFILSDLETAYELFSTAKDFDGDPILGGSISKWKKATTAFQLKVLMHLSKKESDADLKVKERFARIVASGSLMESNEDNLQMKYADKANTVYPFHNTNTKHAGYAMLSTMLIDKFKATGDIRMFYYAKPAKAKLNEGVTADSWDAYIGTDPSLPFEQIEKAYATEQYSGFNARYTDYPSGEPVVRLGYAEQNFILAEAAVRGWISGDASAYYKKAIRAHMEFIASNTPDEEVYHHGHPITEEAIAAFLETPAIQLSGEKEEDIEKILTQRYLASFMQHPYDVYYDYRRTGYPVLPINPATNRNTMNDRLPMRWMYPKSESDYNLEHQNEALERQFGGVDDVNKLMWILQ
[1]
  glycan array binding signal (z-score): -0.425
[2]
  glycan array binding signal (z-score): -0.697
[3]
  glycan array binding signal (z-score): -0.595
[4]
  glycan array binding signal (z-score): -0.274
[5]
  glycan array binding signal (z-score): 1.23
[6]
  glycan array binding signal (z-score): -0.349
[7]
  glycan array binding signal (z-score): 0.696
[8]
  glycan array binding signal (z-score): -0.698
[9]
  glycan array binding signal (z-score): -0.035
[10]
  glycan array binding signal (z-score): -0.841
[11]
  glycan array binding signal (z-score): -0.274
[12]
  glycan array binding signal (z-score): -0.182
[13]
  glycan array binding signal (z-score): 0.182
[14]
  glycan array binding signal (z-score): -0.493
[15]
  glycan array binding signal (z-score): -0.833
[16]
  glycan array binding signal (z-score): -0.288
[17]
  glycan array binding signal (z-score): -0.269
[18]
  glycan array binding signal (z-score): 0.461
[19]
  glycan array binding signal (z-score): 4.41
[20]
  glycan array binding signal (z-score): -0.108
[21]
  glycan array binding signal (z-score): 1.79
[22]
  glycan array binding signal (z-score): 0.462
[23]
  glycan array binding signal (z-score): 0.792
[24]
  glycan array binding signal (z-score): -0.091
[25]
  glycan array binding signal (z-score): -0.864
[26]
  glycan array binding signal (z-score): -0.09
[27]
  glycan array binding signal (z-score): -0.411
[28]
  glycan array binding signal (z-score): -0.74
[29]
  glycan array binding signal (z-score): 0.079
[30]
  glycan array binding signal (z-score): -0.935
[31]
  glycan array binding signal (z-score): 0.506
[32]
  glycan array binding signal (z-score): -0.539
[33]
  glycan array binding signal (z-score): 0.359
[34]
  glycan array binding signal (z-score): 1.22
[35]
  glycan array binding signal (z-score): -0.153
[36]
  glycan array binding signal (z-score): 2.85
[37]
  glycan array binding signal (z-score): 2.58
